The results are deposited in PubChem (AID463188; University of Pittsburgh Molecular Library Screening Center, 2010).

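A z-score from a phospho-tyrosine peptide counterscreen run alongside a FRET kinase assay of purified Hck-YEEI bound to Nef, read after timed room-temperature incubations.
Compounds were tested at a single concentration of 10 µM.
The number is a z-score for the p-Tyr peptide counterscreen; higher values mean a stronger counterscreen signal, and values above 3 mark a compound as likely interfering.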

Common to all entries: measured here: p-Tyr peptide counterscreen.
This is a side read-out of the assay, for part of the compounds, not drawn at random.

- Cc1cc(/C=C2\SC(=Nc3ccc(F)cc3)NC2=O)c(C)n1-c1ccc(S(N)(=O)=O)cc1 | z-score 1.882
- Cc1ccc(-n2c(O)c(C=Nc3ccccc3-c3n[nH]c(=S)[nH]c3=O)c3ccccc3c2=O)c(C)c1 | z-score 0.1134
- Cc1ccsc1/C=N\Nc1cn[nH]c(=O)c1Cl | z-score 0.8413
- O=C(NC1CC1)c1cc(-c2ccco2)nc2ccccc12 | z-score 0.1019
- CC1=C(C#N)C(=O)NC(=O)/C1=C\c1ccc(-c2ccc(C)cc2[N+](=O)[O-])o1 | z-score -1.509
- O=C(CCc1ccccc1)c1c(O)cc(O)cc1O | z-score -2.046
- O=C(CN1CC[n+]2c(-c3ccccc3)csc21)c1ccc(Br)cc1 | z-score -0.5607
- O=C(Oc1ccc(-c2cnc3ccccc3n2)cc1)c1cc([N+](=O)[O-])ccc1Cl | z-score -0.9472
- C=CCn1c(SCC(=O)Nc2ccc(-c3nc4ccc(C)cc4s3)cc2)nnc1-c1ccccc1 | z-score 1.915
- CCCc1cc(-c2[nH]ncc2-c2ccc3c(c2)OCCCO3)c(O)cc1O | z-score 1.3
- O=C(CN1CC[n+]2c(-c3cccs3)csc21)c1ccc(-c2ccccc2)cc1 | z-score -1.113
- O=c1cc(-c2ccc(O)c(O)c2)oc2cc(O)cc(O)c12 | z-score -1.636
- CCOP(=O)(O)c1ccccc1OCCOCCOc1ccccc1P(=O)(O)OCC | z-score 2.746
- N=C1/C(=C/c2ccc(-c3cccc(C(=O)O)c3)o2)C(=O)N=C2SC=C(c3ccccc3)N12 | z-score 0.0434
- O=C(O)c1ccc(N2C(=O)/C(=C/c3ccc(-c4ccc([N+](=O)[O-])cc4)o3)C=C2c2ccccc2)cc1 | z-score -1.114
- Cc1cccn2c(=O)c(/C=N/O)c(Nc3ccccc3F)nc12 | z-score -1.697
- NC(=O)c1cc(Br)cc2c3c([nH]c12)CCCC3 | z-score 1.536
- Cc1ccc(O)c(-c2cc(-c3ccccc3C)[nH]n2)c1 | z-score 1.817
- Cc1ccc(NC(=O)Cn2c(O)c(N=NC(=O)c3cc4ccccc4cc3O)c3ccccc32)cc1 | z-score 0.8907
- Cc1nn(CCc2nn[nH]n2)c2nc(-c3ccc(C4CCCCC4)cc3)cc(C(F)(F)F)c12 | z-score -0.3748
- O=C(NCCN1CCOCC1)c1cc2c(=O)n3ccccc3nc2n1Cc1ccccc1 | z-score 48.81
- CCN1CCN(Cc2ccc(NC(=O)c3ccc(C)c(NC(=O)c4ccnnc4)c3)cc2C(F)(F)F)CC1 | z-score -2.314
- CC(=O)c1ccc2c(c1)C1C=CCC1C(C(=O)O)N2 (configuration not stated) | z-score 0.8477
- CCOC(=O)c1c(NC(=O)/C=C/C(=O)O)sc(C)c1-c1ccc(Cl)cc1 | z-score -1.807
- COc1cc(/C=C/C(=O)OCC(=O)Nc2sc3c(c2C#N)CCC(C)C3)ccc1OCC#N (configuration not stated) | z-score -0.121
- Cc1ccc(C(=O)Nc2cccc(C(F)(F)F)c2)cc1Nc1ncnc2nc[nH]c12 | z-score -0.06057
- CCOC(=O)c1sc(Nc2nc3c(OC)cccc3s2)nc1C | z-score 42.87
- COc1ccc(/C=N/n2c(C)nc3c([nH]c4ccccc43)c2=O)cc1CN1CCCC(C)(C)C1 | z-score -1.088
- O=C(CSc1nc(-c2ccc(F)cc2)nc2c1Cc1ccccc1O2)Nc1ccc(C(=O)O)cc1 | z-score -2.087
- O=c1c2ccccc2[se]n1-c1ccccc1 | z-score -0.3843
- O=C1c2cccc3cc([N+](=O)[O-])cc(c23)C(=O)N1/N=C/c1ccc(O)cc1O | z-score -0.8689
- O=C(N/N=C/c1ccc([N+](=O)[O-])o1)c1ccc(NS(=O)(=O)c2cccs2)cc1 | z-score 0.04734
- Cn1cccc1/C=C1\SC(=Nc2cccc(O)c2)NC1=O | z-score -0.2225
- Cc1[nH]c2ccccc2c1C(=O)CSc1nc2ncc(Cl)cc2[nH]1 | z-score -1.384
- CC(C)[C@H](CO)N(Cc1cccc(F)c1)c1nc(Nc2cccc(Cl)c2)c2ncn(C(C)C)c2n1 | z-score -1.329
- O=C1/C(=C/C=C/c2ccco2)SC(=S)N1c1ccc(O)cc1 | z-score -2.175
- Cn1c2ccccc2c(=O)c2c(=O)n(Cc3ccco3)c(-c3ccc(C(C)(C)C)cc3)nc21 | z-score 0.9229
- C=CCn1c(NS(=O)(=O)c2ccccc2)c(S(=O)(=O)c2ccc(C)cc2)c2nc3ccccc3nc21 | z-score 2.101
- O=C(O)CN1C(=O)/C(=C/c2ccc(SCc3ccccc3)o2)SC1=S | z-score -1.551
- COC(=O)COc1ccc(C2Nc3c(Cl)ccc(C(=O)O)c3C3C=CCC32)cc1 (configuration not stated) | z-score -0.4038
- Cc1cc(C)c2nc(-c3ccccn3)cc(C(=O)Nc3ccc(S(=O)(=O)Nc4onc(C)c4C)cc3)c2c1 | z-score -0.2177
- COc1ccc(/C=C/c2nnc(NC(=O)c3ccco3)s2)cc1 | z-score 14.1
- CC(O)C(C(=O)OCc1ccc([N+](=O)[O-])cc1)N1C(=O)c2ccccc2C1=O (configuration not stated) | z-score 0.1695
- Cc1ccc(-c2nc(N/N=C/c3ccccc3[N+](=O)[O-])c3ccccc3n2)cc1 | z-score 1.571
- CC1=C(C(=O)OCC2CCCO2)C(c2ccc(C)cc2)C2=C(CCCC2=O)N1 (configuration not stated) | z-score 18.92
- O=C(O)COc1ccc(/C=N/NC(=O)c2ccc(-c3csc(Nc4ccc(Cl)cc4)n3)cc2)cc1 | z-score -0.8866
- COc1nc(Nc2nc3ccccc3c(=O)[nH]2)nc2ccc(C)cc12 | z-score -1.374
- CCOc1ccc(/C=C2\SC(=S)N(NS(=O)(=O)c3ccc(C)cc3)C2=O)cc1OC | z-score -1.774

For reference, 5 entries once more:

compound	z-score
O=C(NC1CC1)c1cc(-c2ccco2)nc2ccccc12	0.1019
O=C(CN1CC[n+]2c(-c3ccccc3)csc21)c1ccc(Br)cc1	-0.5607
COc1cc(/C=C/C(=O)OCC(=O)Nc2sc3c(c2C#N)CCC(C)C3)ccc1OCC#N (configuration not stated)	-0.121
CC1=C(C#N)C(=O)NC(=O)/C1=C\c1ccc(-c2ccc(C)cc2[N+](=O)[O-])o1	-1.509
Cc1ccc(C(=O)Nc2cccc(C(F)(F)F)c2)cc1Nc1ncnc2nc[nH]c12	-0.06057